Reference: article PMC5596601
Results are given in words; binding and its absence hold for the method and conditions named. In cells and extracts the contact can be indirect. Some binding calls cover weakened binding; strength is not graded here.

The chains behind the UniProt entries cited, without tags or fusion partners. Residues count along the entry.
UniProt O14763, residues 56-440: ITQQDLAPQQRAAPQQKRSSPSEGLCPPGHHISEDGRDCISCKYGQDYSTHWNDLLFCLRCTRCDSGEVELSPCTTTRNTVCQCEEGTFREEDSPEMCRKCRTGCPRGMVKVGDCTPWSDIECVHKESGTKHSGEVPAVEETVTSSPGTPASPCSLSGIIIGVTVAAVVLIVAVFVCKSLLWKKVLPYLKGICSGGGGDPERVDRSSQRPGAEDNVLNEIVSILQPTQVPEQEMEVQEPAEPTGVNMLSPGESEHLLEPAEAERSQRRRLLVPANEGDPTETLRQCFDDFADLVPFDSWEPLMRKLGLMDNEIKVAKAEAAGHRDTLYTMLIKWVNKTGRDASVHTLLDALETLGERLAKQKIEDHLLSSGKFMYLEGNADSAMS
UniProt O00220, residues 24-468: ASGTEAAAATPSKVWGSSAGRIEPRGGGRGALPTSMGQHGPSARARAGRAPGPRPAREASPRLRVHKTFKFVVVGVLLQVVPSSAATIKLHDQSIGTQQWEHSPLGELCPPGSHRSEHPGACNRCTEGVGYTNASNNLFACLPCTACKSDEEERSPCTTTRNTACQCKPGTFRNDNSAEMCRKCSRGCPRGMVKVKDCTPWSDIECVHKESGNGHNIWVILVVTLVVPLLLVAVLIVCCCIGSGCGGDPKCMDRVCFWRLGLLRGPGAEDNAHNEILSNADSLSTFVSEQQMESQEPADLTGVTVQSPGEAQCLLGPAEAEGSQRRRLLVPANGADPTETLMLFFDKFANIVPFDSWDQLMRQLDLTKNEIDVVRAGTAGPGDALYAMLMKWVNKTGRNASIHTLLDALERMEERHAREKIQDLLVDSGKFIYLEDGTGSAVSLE
UniProt Q13158: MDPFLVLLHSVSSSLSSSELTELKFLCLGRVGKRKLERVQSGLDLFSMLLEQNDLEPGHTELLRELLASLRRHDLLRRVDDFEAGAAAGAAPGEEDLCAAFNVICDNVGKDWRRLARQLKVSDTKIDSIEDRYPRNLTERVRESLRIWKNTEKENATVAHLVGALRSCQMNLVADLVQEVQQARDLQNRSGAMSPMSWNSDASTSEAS
UniProt Q14790: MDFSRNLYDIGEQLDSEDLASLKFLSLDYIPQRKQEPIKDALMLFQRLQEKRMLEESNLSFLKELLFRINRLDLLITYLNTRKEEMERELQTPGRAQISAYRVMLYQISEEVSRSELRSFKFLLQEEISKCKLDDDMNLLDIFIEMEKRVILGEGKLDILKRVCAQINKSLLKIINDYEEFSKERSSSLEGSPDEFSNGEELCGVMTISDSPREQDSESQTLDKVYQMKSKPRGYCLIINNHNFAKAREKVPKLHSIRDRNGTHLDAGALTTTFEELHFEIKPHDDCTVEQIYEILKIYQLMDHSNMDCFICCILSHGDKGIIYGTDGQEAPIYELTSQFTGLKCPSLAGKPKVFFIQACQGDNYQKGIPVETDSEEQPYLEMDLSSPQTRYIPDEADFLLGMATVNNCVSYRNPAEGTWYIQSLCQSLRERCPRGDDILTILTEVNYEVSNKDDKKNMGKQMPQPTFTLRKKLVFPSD
UniProt Q13546: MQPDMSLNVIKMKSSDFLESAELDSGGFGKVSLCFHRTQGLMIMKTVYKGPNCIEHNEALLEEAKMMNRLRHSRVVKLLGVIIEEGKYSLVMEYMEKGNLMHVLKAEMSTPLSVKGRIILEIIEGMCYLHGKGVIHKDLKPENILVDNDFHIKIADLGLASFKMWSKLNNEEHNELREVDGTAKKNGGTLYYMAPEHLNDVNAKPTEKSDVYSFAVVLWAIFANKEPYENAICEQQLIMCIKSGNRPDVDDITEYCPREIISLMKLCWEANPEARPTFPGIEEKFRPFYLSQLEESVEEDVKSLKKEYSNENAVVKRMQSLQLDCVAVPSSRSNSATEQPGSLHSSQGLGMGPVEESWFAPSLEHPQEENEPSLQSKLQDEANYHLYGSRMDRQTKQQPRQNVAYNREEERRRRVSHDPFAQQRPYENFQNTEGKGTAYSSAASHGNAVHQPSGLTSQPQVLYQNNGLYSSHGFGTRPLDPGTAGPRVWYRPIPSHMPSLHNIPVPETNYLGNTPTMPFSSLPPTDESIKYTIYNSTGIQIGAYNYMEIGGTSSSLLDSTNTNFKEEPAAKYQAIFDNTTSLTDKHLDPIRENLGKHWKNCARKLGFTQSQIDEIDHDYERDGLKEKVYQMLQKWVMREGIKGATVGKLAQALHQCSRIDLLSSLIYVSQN

Tests used:
[1] = target: T1, TRAF2 (TNF receptor-associated factor 2) (human (endogenous in BJELR)) (UniProt Q12933); assay: co-IP; purified plasma membrane fraction of BJELR cells (also control and DcR2 knockout cells), naive or treated with 1 ug/ml TRAIL for 30 min; antibodies to DR5, RIPK1, TRAF2 or FADD; Western blot
T1 sequence: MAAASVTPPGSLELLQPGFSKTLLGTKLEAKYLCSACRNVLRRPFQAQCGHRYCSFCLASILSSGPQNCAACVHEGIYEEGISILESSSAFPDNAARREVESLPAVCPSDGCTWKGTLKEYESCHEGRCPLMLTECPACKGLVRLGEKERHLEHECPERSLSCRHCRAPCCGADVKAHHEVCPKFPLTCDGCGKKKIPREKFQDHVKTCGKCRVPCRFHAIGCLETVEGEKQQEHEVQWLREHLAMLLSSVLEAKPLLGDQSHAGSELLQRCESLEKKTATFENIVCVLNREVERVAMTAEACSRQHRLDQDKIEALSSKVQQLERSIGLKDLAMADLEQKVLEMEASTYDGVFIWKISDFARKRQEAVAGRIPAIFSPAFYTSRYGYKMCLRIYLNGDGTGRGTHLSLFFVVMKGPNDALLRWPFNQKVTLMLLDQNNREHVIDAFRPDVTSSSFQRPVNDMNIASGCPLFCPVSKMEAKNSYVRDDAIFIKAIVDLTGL

[2] = target: Death Receptor 5 (human (endogenous in BJELR)) (UniProt O14763); assay: co-IP; whole-cell lysates (1% Triton X-100, 150 mM NaCl, pH 7.4) of BJELR cells, naive or treated with 1 ug/ml TRAIL for 30 min; antibodies to DR5, DR4, DcR2 or caspase-8 on protein G magnetic beads, overnight at 4 °C; Western blot
[3] = target: T2, Decoy Receptor 2 (human (endogenous in BJELR)) (UniProt Q9UBN6); assay: as above
T2 sequence: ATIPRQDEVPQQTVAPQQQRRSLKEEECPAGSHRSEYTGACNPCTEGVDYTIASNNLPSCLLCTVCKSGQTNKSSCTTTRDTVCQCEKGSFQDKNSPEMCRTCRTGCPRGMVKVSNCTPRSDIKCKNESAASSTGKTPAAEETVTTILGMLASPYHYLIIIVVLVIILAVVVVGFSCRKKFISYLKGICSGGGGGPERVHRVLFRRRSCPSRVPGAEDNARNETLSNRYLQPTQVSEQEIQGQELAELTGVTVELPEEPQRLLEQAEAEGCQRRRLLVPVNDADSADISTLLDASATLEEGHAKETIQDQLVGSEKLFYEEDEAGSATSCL

[4] = target: Death Receptor 5 (human (endogenous in BJELR)) (UniProt O14763); assay: co-IP; purified plasma membrane fraction of BJELR cells (also control and DcR2 knockout cells), naive or treated with 1 ug/ml TRAIL for 30 min; antibodies to DR5, RIPK1, TRAF2 or FADD; Western blot

Row | Substance | binding [1] | binding [2] | binding [3] | binding [4]
1 | Death Receptor 4 (from UniProt O00220 24-468) | binds | – | – | –
2 | FADD (Fas-associated protein with death domain) (from UniProt Q13158 1-208) | – | binds | binds | binds
3 | caspase-8 (from UniProt Q14790 1-479) (enzyme) | – | – | binds | –
4 | RIPK1 (receptor-interacting serine/threonine-protein kinase 1) (from UniProt Q13546 1-671) | – | binds | – | binds
